In PubChem BioAssay AID248 (DTP/NCI, 2004) one finds survivor count and T/C data, which are given here for 30 compounds.

Each structure is given as a SMILES string. The list is a part of this screen's results and no random one: it gathers tests that were run many times, whatever their T/C, doses with no T/C, and many T/C values between a quarter and a half above the control. Further doses and runs are listed elsewhere. T/C gives the treated animals as a percentage of the vehicle group. Some entries give survivors of the animals treated and no T/C: the source files T/C as zero there, which appears to mark a toxic dose or a test without result, not a measured value. Some doses without a T/C left all or most animals alive at the check, yet need not have been tolerated: survival well below the control is almost never listed, so the zero probably covers shortened survival too. Survivors were counted at the toxicity check, usually on the fifth day, unless a day is given; later deaths do not show. Schedules are NCI's codes, read here as Q, the interval in days (D) or hours (H), X, the number of doses. Where survival is the endpoint, the PubChem record calls one and a half times the control and up active, and a quarter to a half above the control has no call in these data; cut-offs in other NCI protocols can differ. Some entries hold several experiments; the results are listed from low to high.

In this test the test system is L1210 leukemia ip in BDF1 mice, survival T/C. In words: NCI In Vivo Anticancer Drug Screen. Data for tumor model L1210 Leukemia (intraperitoneal) in B6D2F1 (BDF1) mice. Conditions: T/C endpoint: mean survival time, higher T/C = longer survival.
Where [1] appears, read: dose: 300.0 mg/kg/injection, schedule: Q01DX001 (ip), vehicle: saline.
Where [2] appears, read: dose: 200.0 mg/kg/injection, schedule: Q04DX003 (ip), vehicle: Klucel (hydroxypropylcellulose) (HPC).
[3] abbreviates: dose: 400.0 mg/kg/injection, schedule: Q04DX003 (ip), vehicle: Klucel (hydroxypropylcellulose) (HPC).
The mark [4] stands for this setting: dose: 100.0 mg/kg/injection, schedule: Q01DX001 (ip), vehicle: saline.
Setting [5] is: dose: 400.0 mg/kg/injection, schedule: Q01DX001 (ip), vehicle: saline.
Where [6] appears, read: dose: 100.0 mg/kg/injection, schedule: Q04DX002 (ip), vehicle: saline with Tween-80.
The mark [7] stands for this setting: dose: 200.0 mg/kg/injection, schedule: Q04DX002 (ip), vehicle: saline with Tween-80.
[8] abbreviates: dose: 400.0 mg/kg/injection, schedule: Q04DX002 (ip), vehicle: saline with Tween-80.
Where [9] appears, read: dose: 100.0 mg/kg/injection, schedule: Q04DX003 (ip), vehicle: Klucel (hydroxypropylcellulose) (HPC).
[10] abbreviates: dose: 100.0 mg/kg/injection, schedule: Q04DX003 (ip), vehicle: saline with Tween-80.
Where [11] appears, read: dose: 200.0 mg/kg/injection, schedule: Q04DX003 (ip), vehicle: saline with Tween-80.
[12] abbreviates: dose: 400.0 mg/kg/injection, schedule: Q04DX003 (ip), vehicle: saline with Tween-80.

`OCCCNc1nc2cc(Cl)ccc2c2ccc(Cl)cc12`: the survivor count is 2 of 6 (dose: 200.0 mg/kg/injection, schedule: Q01DX009 (ip), vehicle: Klucel (hydroxypropylcellulose) (HPC)) and 1 of 6 (dose: 400.0 mg/kg/injection, schedule: Q01DX009 (ip), vehicle: Klucel (hydroxypropylcellulose) (HPC)).
Regarding `CC(COC(=O)c1ccc(N)cc1)NC1CCCC1` (centres undefined), the survivor count under setting [1] is 1 of 6.
For the compound `O=S(=O)(F)c1cc(Cl)c(S)cc1Cl`, the survivor count by setting is: under setting [2], 0 of 6; under setting [3], 0 of 6.
As to `O=[N+]([O-])c1ncn(C2CCCCO2)c1Br` (centres undefined), the survivor count (dose: 400.0 mg/kg/injection, schedule: Q04DX003 (ip), vehicle: gum acacia) is on record as 2 of 6.
`COc1ccc(C2ON2C2CCCCC2)cc1OC` (centres undefined): the survivor count under setting [4] is on record as 6 of 6.
`NC(N)=N/C(N)=N\c1nn[nH]n1`: the survivor count (dose: 200.0 mg/kg/injection, schedule: Q01DX009 (ip), vehicle: saline sonified) was 5 of 6.
Regarding `CNC1CC2CCC(C2)C1(O)c1ccccc1` (centres undefined), the survivor count was 0 of 6 (dose: 200.0 mg/kg/injection, schedule: Q01DX001 (ip), vehicle: saline) and 0 of 6 under setting [5].
Consider `CCNC(=O)Oc1c(Cl)cc(S(=O)(=O)F)cc1Cl`, for which the survivor count (dose: 50.0 mg/kg/injection, schedule: Q01DX009 (ip), vehicle: saline with Tween-80) was 3 of 3; the survivor count under setting [6] is reported as 0 of 3; the survivor count under setting [7] is listed as 0 of 3; the survivor count under setting [8] was 0 of 3.
Consider `C=C1C(=O)OC2CCCCC3OC3C12` (centres undefined), for which the survivor count was 0 of 3 (dose: 200.0 mg/kg/injection, schedule: Q01DX001 (ip), vehicle: saline with Tween-80) and 0 of 3 (dose: 400.0 mg/kg/injection, schedule: Q01DX001 (ip), vehicle: saline with Tween-80).
With `Cc1ccc([N+](=O)[O-])cc1NC(=O)N(C)Cc1ccc(Cl)cc1`, the T/C was 91, 94, 95, 97 % of control (dose: 100.0 mg/kg/injection, schedule: Q04DX002 (ip), vehicle: Klucel (hydroxypropylcellulose) (HPC)); 126 % of control under setting [9]; 94, 97, 98, 106 % of control (dose: 200.0 mg/kg/injection, schedule: Q04DX002 (ip), vehicle: Klucel (hydroxypropylcellulose) (HPC)); 126 % of control under setting [2]; 91, 98, 100, 144 % of control (dose: 400.0 mg/kg/injection, schedule: Q04DX002 (ip), vehicle: Klucel (hydroxypropylcellulose) (HPC)).
In the case of `CC[N+](CC)=C1SCCCS1`, the survivor count reads like this: under setting [10], 1 of 3; under setting [11], 0 of 3; under setting [12], 0 of 3.
For the compound `NC(=S)N/N=C\c1c[nH]c2cc(C(F)(F)F)ccc12`, the survivor count runs as follows: (dose: 80.0 mg/kg/injection, schedule: Q01DX001 (ip), vehicle: carboxymethylcellulose (CMC)) 0 of 4; (dose: 100.0 mg/kg/injection, schedule: Q01DX001 (ip), vehicle: carboxymethylcellulose (CMC)) 0 of 4; (dose: 200.0 mg/kg/injection, schedule: Q01DX001 (ip), vehicle: carboxymethylcellulose (CMC)) 0 of 4; (dose: 400.0 mg/kg/injection, schedule: Q01DX001 (ip), vehicle: carboxymethylcellulose (CMC)) 0 of 4.
Consider `NC(Cc1ccc(O)cc1)C(=O)CCl` (centres undefined), for which the survivor count (dose: 100.0 mg/kg/injection, schedule: Q04DX002 (ip), vehicle: saline) is listed as 0 of 3.
For `COc1ccc(N(N=O)C(C)=O)cc1`, where the note is “dose: 80.0 mg/kg/injection, schedule: Q01DX001 (ip), vehicle: saline”, the survivor count is given as 0 of 4.
As for `CCCCCC(CC)C(CC)CO` (centres undefined), the survivor count (dose: 75.0 mg/kg/injection, schedule: Q01DX001 (ip), vehicle: carboxymethylcellulose (CMC)) is 1 of 6; the survivor count (dose: 150.0 mg/kg/injection, schedule: Q01DX001 (ip), vehicle: carboxymethylcellulose (CMC)) is listed as 1 of 6; the survivor count (dose: 300.0 mg/kg/injection, schedule: Q01DX001 (ip), vehicle: carboxymethylcellulose (CMC)) is listed as 1 of 6.
Regarding `c1ccc(COc2ccc(Cc3nccc4ccccc34)cc2OCc2ccccc2)cc1`, under setting [11], the survivor count is on record as 6 of 6.
As to `C1CCC(N2CCOCC2)CC1`, the survivor count was 5 of 6 under setting [10], 0 of 6 under setting [11] and 0 of 6 under setting [12].
On to `[Co].[NH-]CC[N-]CCO.[NH-]CC[N-]CCO`, for which the survivor count is on record as 1 of 6 (dose: 100.0 mg/kg/injection, schedule: Q01DX009 (ip), vehicle: saline); 4 of 6 (dose: 200.0 mg/kg/injection, schedule: Q04DX003 (ip), vehicle: saline); 0 of 6 (dose: 400.0 mg/kg/injection, schedule: Q04DX003 (ip), vehicle: saline).
Consider `O=C(O)/C=C/c1ccccn1`, for which the survivor count under setting [3] was 0 of 6.
Take `COc1ccc(Cl)cc1NC(=O)c1ccc(C(=O)Nc2cc(Cl)ccc2OC)cc1`: the survivor count (dose: 100.0 mg/kg/injection, schedule: Q01DX009 (ip), vehicle: Klucel (hydroxypropylcellulose) (HPC)) is recorded as 6 of 6.
Regarding `CC(=O)CC(=O)C(F)(F)F.CC(=O)CC(=O)C(F)(F)F.[O]=[V]`, the survivor count is 5 of 6 under setting [9], 0 of 6 under setting [2] and 0 of 6 under setting [3].
With `CCS[P+](NC1CCCCC1)(NC1CCCCC1)NC1CCCCC1`, the survivor count runs as follows: (dose: 100.0 mg/kg/injection, schedule: Q01DX009 (ip), vehicle: saline with Tween-80) 1 of 3; under setting [6], 1 of 3; under setting [7], 0 of 3; under setting [8], 0 of 3.
Take `CC[C@]12CN3CCc4c([nH]c5ccccc45)[C@@](C(=O)OC)(c4cc5c(cc4OC)N(C)[C@H]4[C@@](O)(C(=O)OC)[C@H](OC(C)=O)[C@]6(CC)C=CCN7CC[C@]54[C@@H]76)CC(C3)[C@H]1O2` (some centres undefined): for the setting “dose: 12.0 mg/kg/injection, schedule: Q01DX002 (ip), vehicle: saline”, the survivor count is 4 of 6. In addition, the T/C by setting is: (dose: 12.0 mg/kg/injection, schedule: Q01DX009 (ip), vehicle: saline) 133 % of control; (dose: 16.5 mg/kg/injection, schedule: Q04DX003 (ip), vehicle: saline) 127 % of control; (dose: 25.0 mg/kg/injection, schedule: Q04DX003 (ip), vehicle: saline with Tween-80) 131 % of control; (dose: 25.0 mg/kg/injection, schedule: Q04DX003 (ip), vehicle: saline) 145 % of control; (dose: 37.5 mg/kg/injection, schedule: Q04DX003 (ip), vehicle: saline with Tween-80) 148 % of control.
Regarding `CCCCC[n+]1cccc(C#N)c1`, the survivor count under setting [1] is reported as 2 of 6.
Regarding `c1ccc(CC2NC2c2ccccc2)cc1` (centres undefined), the survivor count (dose: 50.0 mg/kg/injection, schedule: Q04DX002 (ip), vehicle: Klucel (hydroxypropylcellulose) (HPC)) is reported as 3 of 3.
For `Nc1ccc(N=Nc2ccc(OCCN(CCO)CCO)cc2)c(N)n1`, the survivor count under setting [5] is given as 6 of 6.
Consider `N#CC(C#N)=C/C=C/c1cccc([N+](=O)[O-])c1`, for which the survivor count reads like this: (dose: 75.0 mg/kg/injection, schedule: Q01DX009 (ip), vehicle: saline) 3 of 6; (dose: 150.0 mg/kg/injection, schedule: Q01DX009 (ip), vehicle: saline) 3 of 6; (dose: 300.0 mg/kg/injection, schedule: Q01DX009 (ip), vehicle: saline) 0 of 6.
As to `COc1ccc(S(=O)(=O)F)cc1C(=O)O`, the survivor count (dose: 400.0 mg/kg/injection, schedule: Q01DX009 (ip), vehicle: saline with Tween-80) is 3 of 3.
For the compound `CC1=NC(C#N)=C(C#N)N=C(c2ccccc2)C1`, the survivor count (dose: 400.0 mg/kg/injection, schedule: Q01DX009 (ip), vehicle: gum acacia) is on record as 6 of 6.
Turning to `O=C(O)c1c[nH]c2c(Cl)cc(Cl)cc2c1=O`, the survivor count under setting [4] was 4 of 4.
